Laboratory results from the supplement of paper PMC9454738.
“And” between values parts separate entries of the source, which are not always exact repeats. Identical values can stand only once. Counter-ions that a name gives are not always drawn. The list shows a part of the results. Single values are uncertain here, since repeats match poorly.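 Triple-negative MDA-MB-231 breast cancer cells and their brain-metastatic MDA-MB-231BRM derivative each stably expressed empty vector, full-length GLI1 or truncated tGLI1. CellTiter-Blue measured viability at 48 h relative to 1% DMSO vehicle. Compounds reducing viability 20% more in tGLI1 cells than in vector and GLI1 cells counted as tGLI1-selective.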

How the values were obtained:
Test in all cases: cell viability relative to vehicle (DMSO) control (fraction); higher = more viable cells (less growth inhibition)
Details in all cases: treatment time 48 h
MDA-MB-231 GLI1 = test system: MDA-MB-231 GLI1
MDA-MB-231 Vector = test system: MDA-MB-231 Vector
MDA-MB-231 tGLI1 = test system: MDA-MB-231 tGLI1
MDA-MB-231BRM GLI1 = test system: MDA-MB-231BRM GLI1
MDA-MB-231BRM Vector = test system: MDA-MB-231BRM Vector
MDA-MB-231BRM tGLI1 = test system: MDA-MB-231BRM tGLI1

Structure (SMILES) | cell viability (MDA-MB-231 GLI1; 0.05 µM) | cell viability (MDA-MB-231 GLI1; 0.5 µM) | cell viability (MDA-MB-231 GLI1; 5 µM) | cell viability (MDA-MB-231 Vector; 0.05 µM) | cell viability (MDA-MB-231 Vector; 0.5 µM) | cell viability (MDA-MB-231 Vector; 5 µM) | cell viability (MDA-MB-231 tGLI1; 0.05 µM) | cell viability (MDA-MB-231 tGLI1; 0.5 µM) | cell viability (MDA-MB-231 tGLI1; 5 µM) | cell viability (MDA-MB-231BRM GLI1; 0.05 µM) | cell viability (MDA-MB-231BRM GLI1; 0.5 µM) | cell viability (MDA-MB-231BRM GLI1; 5 µM) | cell viability (MDA-MB-231BRM Vector; 0.05 µM) | cell viability (MDA-MB-231BRM Vector; 0.5 µM) | cell viability (MDA-MB-231BRM Vector; 5 µM) | cell viability (MDA-MB-231BRM tGLI1; 0.05 µM) | cell viability (MDA-MB-231BRM tGLI1; 0.5 µM) | cell viability (MDA-MB-231BRM tGLI1; 5 µM)
C[C@@H](N)[C@H]1CC[C@H](C(=O)Nc2ccncc2)CC1 | 1.48 | 1.83 | 1.75 | 1.54 | 1.33 | 1.1 | 1.23 | 1.49 | 1.35 | 0.916 | 0.946 | 1.08 | 0.885 | 0.989 | 1.09 | 0.915 | 0.996 | 1.11
C[C@@H]1CCN(C(=O)CC#N)C[C@@H]1N(C)c1ncnc2[nH]ccc12 | 1.13 and 1.06 | 1.3 and 1.38 | 1.12 and 1 | 0.931 and 1.12 | 1.11 and 1.2 | 0.877 and 1.22 | 1.17 and 1.13 | 1.04 and 1.26 | 0.898 and 0.977 | 1.04 and 0.96 | 1.04 and 1.06 | 0.988 and 1.02 | 1.02 and 0.986 | 1.05 | 0.966 and 1.04 | 1.03 and 1.01 | 1.05 and 0.976 | 0.948 and 1.04
O=C(COc1ccc(Cl)cc1)NC1CCC(NC(=O)COc2ccc(Cl)cc2)CC1 (stereo not drawn) [ISRIB (trans-isomer)] | 1.02 | 1.4 | 1.07 | 0.68 | 0.706 | 0.713 | 0.601 | 0.613 | 0.67 | 0.572 | 0.467 | 0.438 | 0.615 | 0.53 | 0.468 | 0.761 | 0.76 | 0.762
CCOc1ccn(-c2ccc(F)cc2)c(=O)c1C(=O)Nc1ccc(Oc2ccnc(N)c2Cl)c(F)c1 | 1.39 | 1.63 | 1.15 | 1.93 | 1.18 | 0.866 | 1.2 | 1.26 | 0.869 | 1.11 | 1.18 | 0.893 | 0.923 | 1.02 | 0.924 | 0.988 | 1.15 | 0.822
Cc1ccc([N+](=O)[O-])cc1S(=O)(=O)N(C)/N=C/c1cnc2ccc(Br)cn12 | 0.134 | 0.141 | -0.0566 | 0.364 | 0.222 | 0.0418 | 0.181 | 0.131 | -0.0732 | 1.47 | 1.03 | 0.346 | 0.624 | 0.987 | 0.625 | 1.08 | 0.551 | 0.557
CC(C)(C)c1ccc(S(=O)(=O)/C=C/C#N)cc1 | 0.828 | 1.61 | 0.923 | 0.393 | 0.484 | 0.16 | 0.441 | 0.524 | 0.21 | 0.599 | 0.495 | 0.63 | 0.611 | 0.473 | 0.58 | 0.743 | 0.611 | 0.976
Cc1ccc(F)c(NC(=O)Nc2ccc(-c3cccc4[nH]nc(N)c34)cc2)c1 [Linifanib (ABT-869)] | 0.758 | 1.17 | 0.0344 | 0.551 | 0.693 | 0.113 | 0.48 | 1.01 | 0.0569 | 0.939 | 1.04 | 0.831 | 0.869 | 0.902 | 0.845 | 1 | 0.961 | 0.8
COc1cc(F)c(F)c(Nc2ccc(I)cc2F)c1NS(=O)(=O)C1(C[C@H](O)CO)CC1 [Refametinib (RDEA119, Bay 86-9766)] | 1.24 | 1.22 | 0.68 | 1.42 | 0.831 | 0.434 | 1.16 | 1.13 | 0.454 | 0.981 | 1 | 0.991 | 0.974 | 1 | 1.02 | 0.956 | 1.01 | 0.886
COc1cc2nccc(Oc3ccc(NC(=O)C4(C(=O)Nc5ccc(F)cc5)CC4)cc3)c2cc1OC | 1.49 | 1.78 | 0.592 | 1.55 | 1.36 | 0.448 | 1.23 | 1.44 | 0.44 | 1.03 | 0.953 | 0.938 | 0.953 | 0.897 | 0.94 | 0.926 | 0.98 | 0.935
CC(C)(C)c1cc(/C=C(\C#N)C(N)=S)cc(C(C)(C)C)c1O [Tyrphostin AG 879] | 1.11 | 1.01 | 1.04 | 0.995 | 0.971 | 1.06 | 1.06 | 0.962 | 1.01 | 0.993 | 1 | 1.14 | 0.994 | 0.946 | 1.01 | 0.955 | 1.05 | 1.11
CO[C@@H](C(=O)N1Cc2[nH]nc(NC(=O)c3ccc(N4CCN(C)CC4)cc3)c2C1)c1ccccc1 | 0.963 | 0.926 | 0.385 | 0.733 | 0.655 | 0.326 | 0.724 | 0.748 | 0.371 | 1.01 | 1.01 | 0.913 | 0.948 | 1.04 | 0.856 | 1.01 | 1.07 | 0.832
Cc1ccc(Nc2nccc(N(C)c3ccc4c(C)n(C)nc4c3)n2)cc1S(N)(=O)=O [Pazopanib HCl] | 1.16 | 1.16 | 1.18 | 1.41 | 1.31 | 1.37 | 1.17 | 1.04 | 1 | 1.02 | 0.971 | 0.828 | 1.08 | 0.973 | 0.952 | 1.08 | 1.01 | 0.933
CC(C)n1nc(-c2ccc3oc(N)nc3c2)c2c(N)ncnc21 | 0.45 | 0.335 | 0.14 | 0.494 | 0.354 | 0.104 | 0.449 | 0.33 | 0.171 | 0.967 | 0.88 | 0.828 | 0.97 | 0.877 | 0.337 | 0.855 | 0.771 | 0.722
Cc1ccc(C(=O)Nc2ccc(CN3CCN(C)CC3)c(C(F)(F)F)c2)cc1C#Cc1cnc2[nH]ncc2c1 | 0.545 | 0.468 | -0.193 | 0.528 | 0.455 | -0.174 | 0.561 | 0.441 | -0.21 | 1.11 | 0.753 | 0.71 | 1.04 | 1.03 | 0.711 | 0.9 | 0.701 | 0.675
